# PubChem BioAssay AID2685 (National Center for Advancing Translational Sciences (NCATS), 2010)
# Some of the results follow. Further columns of the screen follow, without active or inactive calls. Most of these compounds were active or inconclusive in the main read-out, so they are no random draw. Potencies come from curve fits of mixed quality, noted in brackets.
# Assay: qHTS Assay for Lipid Storage Modulators in Drosophila S3 Cells;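 as to cell number change: cells counted by Cell Tracker Red CMTPX staining in the red channel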
# Details: BODIPY lipid droplet fluorescence, 18-24 h; for cell number change: measured here: cell count max response, cells fed with added oleic acid
# Source text: NIH Molecular Libraries Probe Production Centers Network [MLPCN] NIH Chemical Genomics Center [NCGC] MLPCN Grant: 1 R03 MH085686-01 Assay Submitter (PI): Beller, Mathias; Max-Planck-Institut fur Biophysikalische Chemie NCGC Assay Overview: Storing lipids as a reservoir for energy or the anabolism of elementary metabolites is a common feature of probably all cells and is conserved from bacteria to humans. The universal cellular lipid storage organelle is the so-called lipid storage droplet (LD). Although ubiquitous, LDs share a simple structure composed of a hydrophobic core that harbors the storage lipids, which is shielded by a droplet-specific phospholipid monolayer to which proteins are attached. The current model of LD biogenesis involves an incorporation of the lipid core into the membrane leaflets of the endoplasmic reticulum (ER) followed by a subsequent budding-like maturation of a LD, which ultimately pinches off. Once released, LD volume can increase by localized lipogenesis or fusion of existing droplet. Storage lipids are re-mobilized enzymatically by lipase activity. Lipase regulation in the adipocyte is heavily studied and involves multiple components including catecholamine signaling, the LD-associated proteins Perilipin and comparative gene identification (CGI-58) and at least two lipases named hormone sensitive lipase (HSL) and adipocyte triglyceride lipase (ATGL). LD regulation outside of the adipocyte is poorly understood and only few components are known. However, there is an urgent need to learn more about ectopic fat depots as mislocalized storage of lipids, for example in the liver or muscle, is an eminent health problem associated with insulin resistance or the metabolic syndrome. We developed a laser-scanning cytometer assay to enable 1,536-well screening and combined the results of the small molecules screen with an RNAi database based on lipid storage.
# Triacsin C (Sigma-Aldrich T-4540), an inhibitor of long-chain fatty acyl CoA synthetase that blocks synthesis of triglycerides, was used as a positive control for lipid under-storage. A total of 23 nL of compound solution of different concentrations were transferred to the assay plates using a Kalypsys pin tool equipped with a 1,536-pin array containing 10-nL slotted pins (FP1S10, 0.457-mm diameter, 50.8 mm long; V&P Scientific). One microliter of oleic acid (400 uM) was added, and the plate was lidded with stainless steel rubber gasket lined lids containing pinholes. […] Fluorescence was detected by excitation of the fluorophores with a 488-nm laser on an Acumen Explorer (TTP Lab Tech). The total intensity in channel 2 (500-530 nm) reflected lipid droplet accumulation. Cells were detected using channel 3 (575-640 nm) with 5-um width and 100-um depth filters. The ratio of the number of objects in PMT channel 2 over the number of objects in PMT channel 3 was also calculated. Percent activity was computed relative to an internal control (100% inhibited lipid droplet deposition due to the presence of 20 uM Triacsin C), which was added to 32 wells/plate.
# [1] = measured here: lipid fluorescence (Fed channel) AC50, cells fed with added oleic acid
# [2] = measured here: cell number channel AC50, cells fed with added oleic acid
Compound,cell number change [%],AC50 [1],AC50 [2]
O=C(COc1ccccc1Cl)NNC(=O)Cn1[nH]c(=O)c2ccccc2c1=O,20.7,"11.6 µM [rising, partial curve]",–
Brc1ccccc1-c1csnn1,-7.15,–,–
O=C(NCCCN1CCCC1=O)c1ccc2c(=O)n(-c3ccccc3F)c(=S)[nH]c2c1,–,"29.1 µM [rising, single point]",–
Cc1nc2ccccc2n1Cc1ccc(Cl)cc1,-12.7,"8.2 µM [falling, single point]",–
COCCN1C(=O)C(=O)/C(=C(/O)c2ccc(S(=O)(=O)N3CCOCC3)cc2)C1c1ccc(O)c(OC)c1 (stereo not given),10.1,"0.651 µM [falling, single point]",–
Cn1c(=O)c2[nH]c(N=NNc3ccccc3F)nc2n(C)c1=O,5.44,–,–
CC(C)CCNC(=O)c1cccnc1Sc1ccccc1,7.62,"29.1 µM [rising, single point]",–
Fc1ccc2nc(N3CCOCC3)sc2c1,9.88,–,–
Cc1ccc(CNc2oc(-c3cccs3)nc2C#N)cc1,80.8,–,–
COc1ccccc1CCNS(=O)(=O)c1cc2c3c(c1)CCN3C(=O)CC2,24.9,–,–
CCCNC(=O)c1cc(Cl)c(NC(=O)C2=CSCCO2)cc1OC,–,–,"0.0731 µM [falling, full curve, poor fit]"
C[C@]12C(=O)N(c3ccc(C(F)(F)F)cc3)C(=O)N1[C@@H]1c3ccccc3OC[C@@H]1[C@H]2c1ccccc1,–,"6.51 µM [falling, single point]",–
Cc1cc(OCCCCN2C(=O)NC(C)(C)C2=O)cc(C)c1Cl,67.2,–,"20.6 µM [rising, single point]"
Cc1cc(=O)oc2cc(OC(C(=O)O)c3ccccc3)ccc12 (stereo not given),22.8,–,–
COc1ccc(C(=O)N2CCN(C(=O)c3ccc(-c4ccccc4)cc3)CC2)cc1OC,-26,"2.59 µM [falling, full curve, poor fit]",–
O=C(OCCc1cc2ccccc2c(=O)o1)c1ccccc1C(F)(F)F,-16.7,"1.16 µM [falling, single point]","0.461 µM [falling, single point]"
COc1ccc2c(c1OC)C(=O)NC(C)=C(C(=O)OC(C)(C)C)C2O (stereo not given),–,"29.1 µM [falling, single point]",–
Cc1cc(C(=O)O)c(S(C)(=O)=O)s1,-29.4,"1.3 µM [falling, full curve]","0.13 µM [falling, full curve, poor fit]"
OCCCNc1cc(-c2ccnc(Nc3cccc(Cl)c3)n2)ccn1,–,"2.31 µM [falling, partial curve]",–
NC(=O)CC[C@H](NC(=O)c1ccc(F)cc1)C(=O)OCC(=O)Nc1c(F)c(F)c(F)c(F)c1F,32.5,"25.9 µM [rising, single point]",–
Brc1cnc(N2CCOCC2)nc1N1CCCCC1,–,"0.58 µM [falling, single point]","4.61 µM [rising, partial curve]"

# Ordered by length of the SMILES (smallest number first): part of the list above
Compound,cell number change [%],AC50 [1],AC50 [2]
Fc1ccc2nc(N3CCOCC3)sc2c1,9.88,–,–
CCCNC(=O)c1cc(Cl)c(NC(=O)C2=CSCCO2)cc1OC,–,–,"0.0731 µM [falling, full curve, poor fit]"
NC(=O)CC[C@H](NC(=O)c1ccc(F)cc1)C(=O)OCC(=O)Nc1c(F)c(F)c(F)c(F)c1F,32.5,"25.9 µM [rising, single point]",–
C[C@]12C(=O)N(c3ccc(C(F)(F)F)cc3)C(=O)N1[C@@H]1c3ccccc3OC[C@@H]1[C@H]2c1ccccc1,–,"6.51 µM [falling, single point]",–

# (cont.)

Compound,cell number change [%],AC50 [1],AC50 [2]
CCCCc1ccc(S(=O)(=O)Nc2ccc(C)c(NS(C)(=O)=O)c2)cc1,–,"0.00461 µM [falling, full curve, poor fit]",–
Cn1c(=O)n(C)c2cc([N+](=O)[O-])c(N3CCN(S(C)(=O)=O)CC3)cc21,2.14,"29.1 µM [falling, single point]",–
Cc1ccc(CN2CCC(Oc3cccc(C(=O)N(C)CCN(C)C)c3)CC2)cc1C,-9.49,"0.103 µM [falling, full curve, poor fit]",–
CCOc1ccccc1N1CCN(C(=O)c2cc[n+]([O-])cc2)CC1,27,–,–
Cc1ccc2[nH]c3c(N4CCN(Cc5ccc6c(c5)OCO6)CC4)ncnc3c2c1,-30.1,"2.06 µM [falling, full curve]","0.92 µM [falling, full curve]"
COc1ccccc1N(CC(O)CN1C(C)CCCC1C)S(=O)(=O)c1ccccc1 (stereo not given),25,–,–
CC(=O)c1ccc(NC(=O)c2ccc(-n3cnnn3)cc2)cc1,12.5,–,–
O=S(=O)(NC1CC(NS(=O)(=O)OCC(Cl)(Cl)Cl)C2CCCCC12)OCC(Cl)(Cl)Cl (stereo not given),-26.5,"29.1 µM [falling, single point]",–
CCCCCCCSc1nsc(N)n1,-38.2,"23.1 µM [falling, partial curve, poor fit]","20.6 µM [falling, single point]"
O=C(NNc1c2ccccc2nc2ccccc12)c1cc2ccccc2cc1O,-73.1,"4.61 µM [falling, full curve]","5.17 µM [falling, full curve]"
O=Cc1cc(Cl)ccc1OCCN1CCC(Cc2ccccc2)CC1,-25.8,"29.1 µM [falling, single point]",–
CCc1noc(C)c1C(=O)Nc1cc(S(=O)(=O)N2CCOCC2)ccc1OC(C)C,114,–,"10.3 µM [rising, partial curve]"
O=C(COC(=O)/C=C/c1nc2ccccc2s1)Nc1ccccc1Oc1ccccc1,18.4,"18.4 µM [rising, partial curve]",–
Cc1cc(S(=O)(=O)n2[nH]c(=O)c(CCO)c2C)c(Cl)cc1Cl,5.33,"0.082 µM [rising, full curve, poor fit]",–
Cc1ccc(C(=O)C(C)OC(=O)CN2C(=O)NC3(CCCC3)C2=O)cc1 (stereo not given),–,–,"4.61 µM [rising, single point]"
CC1(C)Cc2cccc(OCC(=O)OCc3nnc(-c4ccccc4)o3)c2O1,8.57,"2.06 µM [rising, partial curve]","6.51 µM [falling, single point]"
CNC(=S)N1N=C(c2ccc(OC)cc2)CC1c1ccc(N(C)C)cc1 (stereo not given),30.1,–,"0.92 µM [rising, full curve, poor fit]"
CCCn1cccc(C(=O)Nc2ccc(OC)cc2)c1=O,13.9,"0.651 µM [falling, single point]",–
CCN1CCN(C2=CC3=CC(=C(C#N)C#N)CCC3CC2)CC1 (stereo not given),-97.6,"0.411 µM [falling, full curve]","1.64 µM [falling, full curve]"
O=C(NCc1ccco1)C(C(=O)c1ccc(F)cc1)n1ccccc1=O (stereo not given),33.3,–,"29.1 µM [rising, single point]"
Cc1onc(-c2c(Cl)cccc2Cl)c1C(=O)N1CCSCC1,-44.8,"16.4 µM [falling, partial curve]","14.6 µM [falling, single point]"

Compound,cell number change [%],AC50 [1],AC50 [2]
CCN(Cc1ccccc1)Cc1c(C)[nH]c2c(C)c(C)ccc2c1=O,22.2,–,–
O=C(CCCC(=O)N(c1ccc2c(c1)OCCO2)C(C(=O)NC1CCCCC1)c1ccc(Cl)cc1)Nc1ccccn1 (stereo not given),–,–,"0.326 µM [rising, single point]"
CC1CN(C(=O)C2CC(=O)N(c3ccc(Cl)cc3)C2)CC(C)O1 (stereo not given),28.2,–,"0.231 µM [rising, full curve, poor fit]"
CCOc1cc(C(=O)OCc2ccc(C(=O)OC)o2)cc(Br)c1OC,3.69,–,–
COc1c[nH]n(C2CCCCC2)c(=O)c1=O,-1.12,"0.291 µM [falling, full curve, poor fit]",–
Cc1ccc2c(CN3CCCCC3C)cc(=O)oc2c1C (stereo not given),–,"29.1 µM [falling, single point]","2.06 µM [rising, partial curve]"
CCOC(=O)C1=C(C)NC2=C(C(=O)C(C(=O)OCC)C(c3cccc(OC)c3)C2)C1c1ccccn1 (stereo not given),22.5,"2.06 µM [falling, partial curve]","0.731 µM [falling, full curve]"
Cc1ccc(-c2nc(SCC(N)=O)c(C#N)c3c2CCCC3)cc1,127,"7.31 µM [rising, partial curve]","7.31 µM [rising, partial curve]"
COc1cccc(OCC(O)CN2C(C)CCCC2C)c1 (stereo not given),-0.283,"0.058 µM [falling, full curve]",–
Cc1noc(-c2ccccc2OC(=O)c2ccccc2)n1,4.05,"0.00651 µM [falling, full curve, poor fit]",–
O=C1c2ccccc2NC(c2cn[nH]c2-c2ccccc2)N1O (stereo not given),-0.244,"10.3 µM [rising, partial curve]",–
O=C(NCC1CCCO1)c1cccc(NC(=O)c2ccco2)c1 (stereo not given),0.809,–,–
CC1CN(CCOc2ccc(F)cc2)CC(C)O1 (stereo not given),11.7,"29.1 µM [rising, single point]",–
Cc1ccc(-c2nc(N)s[n+]2-c2ccccc2)cc1,-83.7,"29.1 µM [falling, single point]","23.1 µM [falling, single point]"
COCCn1c(SCC(=O)N2CCOCC2)nnc1-c1ccco1,-13.2,–,–
Cc1ccc(C)c(NC(=O)c2cc(C)nc3ccccc23)c1,11.1,"3.66 µM [rising, full curve]",–
COc1cc(C)c(C(C)C)cc1S(=O)(=O)n1cnc(C)c1,35.3,–,"29.1 µM [rising, single point]"
Cc1nc2cc(Cl)c(Cl)cc2n1-c1ccccn1,-20.2,"4.11 µM [falling, partial curve, poor fit]",–
COc1ccc(CNC(=O)Cn2cccc2C(=O)c2ccccc2C)cc1,–,"0.58 µM [rising, single point]",–
O=C(CSc1cccc2cccnc12)Nc1cccc(S(=O)(=O)N2CCOCC2)c1,35.8,–,"29.1 µM [rising, single point]"
N#Cc1nc(-c2ccccc2F)oc1NC1CCCCC1,-3.49,"0.00461 µM [rising, full curve, poor fit]",–
